Assay results taken from the supplement of paper PMC10331698.
± gives the standard deviation of the averaged measurements. Most values lie at the level of the controls, where differences are scatter.

What was measured:
Assay in all cases: level (log10 ratio to DMSO vehicle control); higher = higher biomarker level / cell amount than vehicle control
[1] = compound: CC(C)(C)C(=O)CC(=O)C(F)(F)C(F)(F)C(F)(F)F [(Heptafluorobutanoyl)pivaloylmethane]; details: 2200 nM; in DMSO
Method: (§1)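 BioMAP Diversity Plus panel of 12 human primary cell co-culture systems (3C, 4H, LPS, SAg, BT, BF4T, BE3C, CASM3C, HDF3CGF, KF3CT, MyoF, Mphg). Compounds were added 1 h before stimulation and left for 24 h (MyoF 48 h; BT 72 h for soluble read-outs or 6 d for IgG). Biomarkers were read by ELISA, cytotoxicity by SRB, PBMC viability and proliferation by Alamar Blue. Each well value was divided by the mean of 8 DMSO control wells on the same plate and log10 transformed; duplicate blinded samples were tested at 4 concentrations.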

[2] = compound: O=C(O)C(F)(F)C(F)(F)C(F)(F)C(F)(F)C(=O)O [Octafluoroadipic acid]; details: 2200 nM; in DMSO
Method: as §1

[3] = compound: Cc1ccc(S(=O)(=O)OCC(F)(F)C(F)(F)C(F)(F)C(F)(F)C(F)(F)C(F)F)cc1 [1H,1H,7H-Perfluoroheptyl 4-methylbenzenesulfonate]; details: 2200 nM; in DMSO
Method: as §1

[4] = compound: O=C(O)C(F)(F)C(F)(F)C(F)(F)C(F)(F)C(F)(F)C(F)(F)F [Perfluoroheptanoic acid]; details: in DMSO
Method: as §1

[5] = compound: CN(C(=O)C(F)(F)C(F)(F)C(F)(F)F)[Si](C)(C)C [N-Methyl-N-trimethylsilylheptafluorobutyramide]; details: 2200 nM; in DMSO
Method: as §1

[6] = compound: OCCC(F)(F)C(F)(F)C(F)(F)C(F)(F)C(F)(F)C(F)(F)F [6:2 Fluorotelomer alcohol]; details: 2200 nM; in DMSO
Method: as §1

[7] = compound: O=C(O)C(F)(F)C(F)(F)C(F)(F)C(F)(F)C(F)(F)C(F)(F)C(F)(F)C(F)(F)C(F)(F)C(F)F [11-H-Perfluoroundecanoic acid]; details: 2200 nM; in DMSO
Method: as §1

[8] = compound: O=S(=O)(O)CCC(F)(F)C(F)(F)C(F)(F)C(F)(F)C(F)(F)C(F)(F)C(F)(F)C(F)(F)F [8:2 Fluorotelomer sulfonic acid]; details: in DMSO
Method: as §1

[9] = compound: NC(=O)C(F)(F)C(F)(F)C(F)(F)F [Heptafluorobutyramide]; details: 2200 nM; in DMSO
Method: as §1

[10] = compound: CCCCCCCCC(F)(F)C(F)(F)C(F)(F)C(F)(F)C(F)(F)C(F)(F)F [1-(Perfluorohexyl)octane]; details: in DMSO
Method: as §1

[11] = compound: O=C(O)C(F)(F)C(F)(F)C(F)(F)OC(F)(F)F [Perfluoro(4-methoxybutanoic) acid]; details: 2200 nM; in DMSO
Method: as §1

[12] = compound: CCN(CCO)S(=O)(=O)C(F)(F)C(F)(F)C(F)(F)C(F)(F)C(F)(F)C(F)(F)C(F)(F)C(F)(F)F [N-Ethyl-N-(2-hydroxyethyl)perfluorooctanesulfonamide]; details: in DMSO
Method: as §1

[13] = compound: O=C(O)C(F)(F)C(F)(F)C(F)(F)C(F)(F)F [Perfluoropentanoic acid]; details: in DMSO
Method: as §1

[14] = compound: OCC(F)(F)C(F)(F)C(F)(F)F [1H,1H-Heptafluorobutanol]; details: 2200 nM; in DMSO
Method: as §1

[15] = compound: FC(F)(F)C(F)(F)C(F)(F)C(F)(F)C(F)(F)C(F)(F)CC1CO1 [3-(Perfluorohexyl)-1,2-epoxypropane]; details: 2200 nM; in DMSO
Method: as §1

[16] = compound: NCC(F)(F)C(F)(F)C(F)(F)C(F)(F)C(F)(F)C(F)(F)C(F)(F)F [1H,1H-Perfluorooctylamine]; details: 2200 nM; in DMSO
Method: as §1

Test System	level (log10) [1]	level (log10) [2]	level (log10) [3]	level (log10) ([4]; 2200 nM)	level (log10) ([4]; 6700 nM)	level (log10) ([4]; 20000 nM)	level (log10) ([4]; 60000 nM)	level (log10) [5]	level (log10) [6]	level (log10) [7]	level (log10) ([8]; 2200 nM)	level (log10) ([8]; 6700 nM)	level (log10) ([8]; 20000 nM)	level (log10) ([8]; 60000 nM)	level (log10) [9]	level (log10) ([10]; 740 nM)	level (log10) ([10]; 2200 nM)	level (log10) [11]	level (log10) ([12]; 2200 nM)	level (log10) ([12]; 6700 nM)	level (log10) ([12]; 20000 nM)	level (log10) ([13]; 2200 nM)	level (log10) ([13]; 6700 nM)	level (log10) ([13]; 20000 nM)	level (log10) ([13]; 60000 nM)	level (log10) [14]	level (log10) [15]	level (log10) [16]
3C:CXCL9/MIG	-0.007 ± 0.0014	0.002 ± 0.011	0.0095 ± 0.005	0.01	0.0115 ± 0.0035	-0.01 ± 0.0071	0.0135 ± 0.0078	-0.006 ± 0.0042	0.0095 ± 0.0064	0.0115 ± 0.0035	0.0075 ± 0.00071	-0.004 ± 0.0014	0.004 ± 0.013	-0.0045 ± 0.0035	-0.007 ± 0.0014	-0.0035 ± 0.023	0.0035 ± 0.026	-0.001 ± 0.011	0.0055 ± 0.005	-0.013 ± 0.0085	-0.006 ± 0.0085	0.001 ± 0.0014	-0.0085 ± 0.018	-0.0125 ± 0.03	0.0095 ± 0.028	0 ± 0.0028	0.006 ± 0.011	-0.0115 ± 0.0092
3C:HLA-DR	0.0065 ± 0.018	0.008 ± 0.021	0.0085 ± 0.023	0.032 ± 0.0028	0.006 ± 0.017	0.004 ± 0.013	0.034 ± 0.047	0.0095 ± 0.0035	0.028 ± 0.017	0.0205 ± 0.0035	-0.0045 ± 0.012	-0.0155 ± 0.012	-0.011 ± 0.0071	-0.011 ± 0.0085	-0.003 ± 0.0014	0.011 ± 0.016	0.011 ± 0.0099	0.006 ± 0.0028	0.0035 ± 0.015	0.013 ± 0.025	-0.0625 ± 0.016	0.006 ± 0.0028	-0.0075 ± 0.0035	0.0015 ± 0.021	0.018 ± 0.037	0.0015 ± 0.021	0.021	0.0195 ± 0.052
3C:Proliferation	-0.019 ± 0.059	-0.0035 ± 0.016	-0.054 ± 0.045	-0.069 ± 0.023	-0.0365 ± 0.028	0.0245 ± 0.057	-0.109 ± 0.057	0.0055 ± 0.016	-0.0275 ± 0.043	-0.0045 ± 0.00071	-0.025 ± 0.031	0.004 ± 0.086	-0.0315 ± 0.083	-0.053 ± 0.018	-0.001 ± 0.069	-0.0495 ± 0.05	-0.0135 ± 0.057	-0.0975 ± 0.0064	-0.0995 ± 0.1	-0.267 ± 0.087	-0.947 ± 0.17	-0.019 ± 0.021	-0.029 ± 0.028	0.011	0.0015 ± 0.046	-0.0245 ± 0.0078	-0.0135 ± 0.026	0.001 ± 0.044
3C:SRB	0.001 ± 0.0042	-0.0235 ± 0.018	0.0045 ± 0.043	-0.008 ± 0.0071	-0.0065 ± 0.0078	0.005 ± 0.0085	-0.0255 ± 0.0035	0.0045 ± 0.022	-0.025 ± 0.0028	0.01 ± 0.033	-0.0165 ± 0.00071	-0.017 ± 0.0057	-0.019 ± 0.018	-0.0705 ± 0.028	-0.016 ± 0.0028	0.0165 ± 0.0078	0.002 ± 0.017	-0.0205 ± 0.0021	-0.029 ± 0.018	-0.0815 ± 0.021	-0.217 ± 0.011	-0.0135 ± 0.021	-0.0115 ± 0.013	0.001 ± 0.014	0.007 ± 0.018	-0.007 ± 0.0057	0.0075 ± 0.0035	0 ± 0.013
4H:CCL2/MCP-1	0.023 ± 0.072	-0.005 ± 0.078	-0.002 ± 0.1	0.0175 ± 0.043	-0.0115 ± 0.0064	-0.0165 ± 0.013	0.025 ± 0.024	0.022 ± 0.069	0.031 ± 0.062	-0.0125 ± 0.076	0.0075 ± 0.047	-0.001 ± 0.014	-0.033 ± 0.016	0.0125 ± 0.046	0.012 ± 0.051	0.0255 ± 0.12	-0.026 ± 0.0099	0.0355 ± 0.035	0.022 ± 0.0099	-0.007 ± 0.0099	-0.159 ± 0.044	0.0095 ± 0.047	-0.0085 ± 0.052	-0.047 ± 0.0042	0.014 ± 0.052	0.031 ± 0.058	0.023 ± 0.038	0.0165 ± 0.066
4H:CCL26/Eotaxin-3	-0.002 ± 0.014	0.0165 ± 0.005	0.013 ± 0.024	0.0045 ± 0.005	0.0055 ± 0.0064	0.0045 ± 0.0092	-0.015 ± 0.0085	0.0085 ± 0.046	0.062 ± 0.051	-0.049 ± 0.03	0.0145 ± 0.021	0.0095 ± 0.06	-0.0325 ± 0.015	-0.075 ± 0.0042	0.0365 ± 0.021	0.0135 ± 0.03	0.001 ± 0.0028	0.0275 ± 0.011	0.081 ± 0.058	0.077 ± 0.031	-0.143 ± 0.14	0.003 ± 0.0071	0.0015 ± 0.0035	-0.0185 ± 0.022	0.004 ± 0.05	0.008 ± 0.016	0.0005 ± 0.0064	0.033 ± 0.052
4H:CD62P/P-selectin	-0.0205 ± 0.069	-0.012 ± 0.017	0.018 ± 0.03	0.009 ± 0.0014	0.007 ± 0.018	0.0035 ± 0.016	0.0605 ± 0.05	-0.0035 ± 0.015	-0.004 ± 0.0057	0.0245 ± 0.0021	-0.0205 ± 0.0021	-0.0315 ± 0.09	-0.034 ± 0.099	-0.015 ± 0.071	0.025 ± 0.0071	-0.0295 ± 0.057	0.0025 ± 0.044	-0.004 ± 0.05	0.007 ± 0.014	-0.079 ± 0.0014	-0.142 ± 0.044	0.003 ± 0.0014	-0.0025 ± 0.067	-0.023 ± 0.03	-0.0285 ± 0.043	0.0695 ± 0.066	-0.009 ± 0.017	-0.0175 ± 0.012
4H:CD87/uPAR	-0.0025 ± 0.0092	0.045 ± 0.02	0.0125 ± 0.0064	0.0445 ± 0.011	0.0355 ± 0.042	-0.007 ± 0.054	0.061 ± 0.14	0.014 ± 0.03	-0.0205 ± 0.0035	0.0195 ± 0.028	0.0035 ± 0.00071	0.026 ± 0.0028	-0.01 ± 0.023	-0.0345 ± 0.015	0.0455 ± 0.0064	0.0135 ± 0.0021	0.0015 ± 0.00071	0.0405 ± 0.033	-0.0285 ± 0.0064	-0.037 ± 0.037	-0.088 ± 0.024	-0.023 ± 0.025	-0.0435 ± 0.035	-0.0355 ± 0.005	-0.055 ± 0.0028	0.0165 ± 0.0021	0.0535 ± 0.096	-0.0205 ± 0.043
4H:CD106/VCAM-1	0.013 ± 0.014	-0.003 ± 0.016	0.0405 ± 0.09	0.037 ± 0.02	0.0215 ± 0.035	0.0045 ± 0.049	0.007 ± 0.017	0.0305 ± 0.061	0.0055 ± 0.00071	0.01 ± 0.034	-0.0105 ± 0.035	-0.0065 ± 0.025	-0.018 ± 0.0014	-0.0375 ± 0.0021	-0.017 ± 0.044	-0.0075 ± 0.046	0.0115 ± 0.016	0.008 ± 0.021	0.062 ± 0.0057	0.116 ± 0.021	0.0765 ± 0.0021	0.0105 ± 0.016	0.002 ± 0.038	0.0125 ± 0.0021	0.024 ± 0.013	0.029 ± 0.0085	0.007 ± 0.0042	0.0245 ± 0.00071

Two consecutive entries out of the list so far, quoted:
Test System	level (log10) [1]	level (log10) [2]	level (log10) [3]	level (log10) ([4]; 2200 nM)	level (log10) ([4]; 6700 nM)	level (log10) ([4]; 20000 nM)	level (log10) ([4]; 60000 nM)	level (log10) [5]	level (log10) [6]	level (log10) [7]	level (log10) ([8]; 2200 nM)	level (log10) ([8]; 6700 nM)	level (log10) ([8]; 20000 nM)	level (log10) ([8]; 60000 nM)	level (log10) [9]	level (log10) ([10]; 740 nM)	level (log10) ([10]; 2200 nM)	level (log10) [11]	level (log10) ([12]; 2200 nM)	level (log10) ([12]; 6700 nM)	level (log10) ([12]; 20000 nM)	level (log10) ([13]; 2200 nM)	level (log10) ([13]; 6700 nM)	level (log10) ([13]; 20000 nM)	level (log10) ([13]; 60000 nM)	level (log10) [14]	level (log10) [15]	level (log10) [16]
4H:CCL2/MCP-1	0.023 ± 0.072	-0.005 ± 0.078	-0.002 ± 0.1	0.0175 ± 0.043	-0.0115 ± 0.0064	-0.0165 ± 0.013	0.025 ± 0.024	0.022 ± 0.069	0.031 ± 0.062	-0.0125 ± 0.076	0.0075 ± 0.047	-0.001 ± 0.014	-0.033 ± 0.016	0.0125 ± 0.046	0.012 ± 0.051	0.0255 ± 0.12	-0.026 ± 0.0099	0.0355 ± 0.035	0.022 ± 0.0099	-0.007 ± 0.0099	-0.159 ± 0.044	0.0095 ± 0.047	-0.0085 ± 0.052	-0.047 ± 0.0042	0.014 ± 0.052	0.031 ± 0.058	0.023 ± 0.038	0.0165 ± 0.066
4H:CCL26/Eotaxin-3	-0.002 ± 0.014	0.0165 ± 0.005	0.013 ± 0.024	0.0045 ± 0.005	0.0055 ± 0.0064	0.0045 ± 0.0092	-0.015 ± 0.0085	0.0085 ± 0.046	0.062 ± 0.051	-0.049 ± 0.03	0.0145 ± 0.021	0.0095 ± 0.06	-0.0325 ± 0.015	-0.075 ± 0.0042	0.0365 ± 0.021	0.0135 ± 0.03	0.001 ± 0.0028	0.0275 ± 0.011	0.081 ± 0.058	0.077 ± 0.031	-0.143 ± 0.14	0.003 ± 0.0071	0.0015 ± 0.0035	-0.0185 ± 0.022	0.004 ± 0.05	0.008 ± 0.016	0.0005 ± 0.0064	0.033 ± 0.052
